{"source": "paper PMC13095444", "about": "“Discovery of RGS2-FBXO44 interaction inhibitors using a cell-based NanoBit assay” (Molecular Pharmacology, 2025)", "binders": {"B1": {"name": "SmBiT-FBXO44 (protein, UniProt Q9H4M3 1-255)", "chain": "MAVGNINELPENILLELFTHVPARQLLLNCRLVCSLWRDLIDLVTLWKRKCLREGFITEDWDQPVADWKIFYFLRSLHRNLLHNPCAEEGFEFWSLDVNGGDEWKVEDLSRDQRKEFPNDQVKKYFVTSYYTCLKSQVVDLKAEGYWEELMDTTRPDIEVKDWFAARPDCGSKYQLCVQLLSSAHAPLGTFQPDPATIQQKSDAKWREVSHTFSNYPPGVRYIWFQHGGVDTHYWAGWYGPRVTNSSITIGPPLP"}, "B2": {"name": "LgBiT-FBXO44 (natural protein, UniProt Q9H4M3 1-255, looked up)", "chain": "B1 chain", "notes": "F-box Only Protein 44 (FBXO44); cloned in-house into pBiT1.3-N[CMV/LgBiT/Hygro]; The linker between LgBiT and FBXO44 is not described; also called N-terminally tagged FBXO44; source: HEK-293T, transiently transfected, in live cells; not shown: LgBiT, N-terminal, kept"}, "B3": {"name": "FLAG-FBXO44 (protein, UniProt Q9H4M3 1-255)", "chain": "B1 chain"}}, "key": {"RGS2-LgBiT": {"target": "T1, RGS2-LgBiT (UniProt P41220)", "T1 sequence": "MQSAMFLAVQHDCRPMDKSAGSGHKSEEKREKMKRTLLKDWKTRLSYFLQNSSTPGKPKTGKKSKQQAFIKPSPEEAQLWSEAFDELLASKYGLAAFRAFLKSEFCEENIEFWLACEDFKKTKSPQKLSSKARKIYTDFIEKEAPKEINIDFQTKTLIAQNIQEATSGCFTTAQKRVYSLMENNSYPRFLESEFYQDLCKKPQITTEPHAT", "assay": "split reporter; NanoBiT luminescence in live, transiently transfected HEK-293T cells; every combination of RGS2 and FBXO44 NanoBiT constructs; 15,000 cells/well, 2 hours incubation"}, "RGS2-SmBiT": {"target": "T2, RGS2-SmBiT (UniProt P41220 1-211)", "T2 construct": "Regulator of G protein signaling 2 (RGS2); cloned in-house into pBiT2.3-C[CMV/SmBiT/Blast]; The linker between RGS2 and SmBiT is not described; In the BiBiT construct RGS2-SmBiT and LgBiT-FBXO44 are expressed from one plasmid with a bidirectional CMV promoter; also called C-terminally tagged RGS2; source: HEK-293T, transiently transfected, in live cells; not shown: SmBiT, C-terminal, kept", "T2 sequence (looked up)": "T1 sequence", "assay": "split reporter; NanoBiT luminescence in live stable HEK-293T cells (BiBiT dual-expression vector, single clone #6), 384-well plates, Nano-Glo Live Cell Substrate in HBSS, 20 minutes at room temperature, normalised to viability; compared with nontransfected HEK-293T cells; used for treatment with library compounds (100 uM or 500-0.01 uM, 16-18 hours)"}, "RGS2-HA [1]": {"target": "T3, RGS2-HA (UniProt P41220)", "T3 sequence": "T1 sequence", "assay": "co-IP; as a3 but with 100 uM compound 10 (results: cells treated overnight, 16-18 hours; methods: lysates incubated 30 minutes at 4 °C); precipitation with anti-HA, western blot for FLAG"}, "RGS2-HA [2]": {"target": "T3, RGS2-HA", "assay": "co-IP; HEK-293T cells transfected with RGS2-HA and FLAG-FBXO44, vehicle (DMSO); lysis in RIPA buffer, precipitation with rabbit anti-HA antibody and protein A agarose at 4 °C overnight, western blot for FLAG"}}, "note": "These are yes or no findings as the source states them, for the method shown. In cells and extracts the contact can be indirect. Some results given as binding are weak or reduced against the parent protein; the word gives no strength. For some of these results: Tags and fused reporters may be left off the sequences shown.", "data": [{"binder": "B1", "values": [{"measurement": "binding", "setting": "RGS2-LgBiT", "result": "binds"}]}, {"binder": "B2", "values": [{"measurement": "binding", "setting": "RGS2-SmBiT", "result": "binds"}]}, {"binder": "B3", "values": [{"measurement": "binding", "setting": "RGS2-HA [1]", "result": "binds weakly"}, {"measurement": "binding", "setting": "RGS2-HA [2]", "result": "binds"}]}]}
